Assay results from paper PMC7862700.
The entries are a selection whose mix differs from that of the whole data set. For part of these data: At the low end of the ranking the order means little.

molecular target: T1, ELK1 (UniProt P19419); test: DAPPL (digital affinity profiling via proximity ligation, sequencing); conditions: 10 mM Tris-HCl pH 7.5, 50 mM NaCl, 1 mM DTT, 4% glycerol, room temperature, 30 min; GST-TFs on glutathione beads, 16-mer random dsDNA library, 0.1% …; high values mean tight binding; double strand, one strand shown; scale: fold enrichment (6-mer frequency, TF over GST control)
T1 sequence: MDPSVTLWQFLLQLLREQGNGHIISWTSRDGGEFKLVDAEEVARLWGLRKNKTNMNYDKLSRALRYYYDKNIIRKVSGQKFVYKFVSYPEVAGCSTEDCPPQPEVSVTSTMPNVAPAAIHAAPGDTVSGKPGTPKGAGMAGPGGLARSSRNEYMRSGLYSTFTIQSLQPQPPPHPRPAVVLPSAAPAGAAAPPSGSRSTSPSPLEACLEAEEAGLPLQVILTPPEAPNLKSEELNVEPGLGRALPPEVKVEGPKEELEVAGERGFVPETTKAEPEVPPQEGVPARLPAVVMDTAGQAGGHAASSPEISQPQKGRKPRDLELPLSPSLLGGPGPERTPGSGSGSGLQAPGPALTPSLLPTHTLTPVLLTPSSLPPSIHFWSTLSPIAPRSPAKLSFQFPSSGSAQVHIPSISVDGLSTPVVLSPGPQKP

Row | Sequence | binding signal
1 | TATCAT | 1.18
2 | CGGCTA | 1.14
3 | TTCGTA | 1.44
4 | AACGTT | 1.15
5 | TCACGC | 1.18
6 | AAGGTA | 1.08
7 | CTGGCC | 1.13
8 | TTTTGA | 1.18
9 | GCTCCA | 1.17
10 | TCCGGC | 2.4
11 | TGATCT | 1.33
12 | AAAAGA | 1.19
13 | ACCCGC | 1.29
14 | ATGCAA | 1.26
15 | CCCTAC | 1.49

molecular target: T2, SPIC (UniProt Q8N5J4); test: as above; conditions: 10 mM Tris-HCl pH 7.5, 50 mM NaCl, 1 mM DTT, 4% glycerol, room temperature, 30 min; GST-TFs on glutathione beads, 16-mer random dsDNA library, 0.1% …; high values mean tight binding; double strand, one strand shown; scale: fold enrichment (6-mer frequency, TF over GST control)
T2 sequence: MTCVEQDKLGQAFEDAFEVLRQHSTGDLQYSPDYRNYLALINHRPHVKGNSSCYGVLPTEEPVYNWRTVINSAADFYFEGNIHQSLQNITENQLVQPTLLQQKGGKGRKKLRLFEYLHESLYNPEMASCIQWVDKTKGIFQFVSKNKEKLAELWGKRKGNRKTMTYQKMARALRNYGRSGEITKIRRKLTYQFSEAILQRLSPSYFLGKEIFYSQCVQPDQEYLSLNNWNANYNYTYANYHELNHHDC

Row | Sequence | binding signal
16 | TCTTAA | 1.2
17 | TATCAT | 1.25
18 | CGGCTA | 0.898
19 | TTCGTA | 1.42
20 | AACGTT | 1.23
21 | GCATTC | 0.986
22 | TGCTAT | 1.37
23 | TCACGC | 1.25
24 | TCACGA | 1.1
25 | TCGCAC | 1.06
26 | CTAAAC | 1.18
27 | AAGGTA | 0.992
28 | TTTGGT | 1.37
29 | CACGCT | 1.23
30 | CCATTG | 0.971
31 | CTGAAT | 1.29
32 | CTGGCC | 0.955
33 | AAAATT | 1.2
34 | ACCGAT | 1.33
35 | TTTATT | 1.25

Row | Sequence | binding signal
36 | CTCTGT | 1.5
37 | TTTTGA | 1.21
38 | GCTCCA | 1.08
39 | GTTCTA | 1.37
40 | TCCGGC | 2.2
41 | AAACCC | 1.2
42 | TTTAGG | 0.995
43 | TGATCT | 1.19
44 | ACTGCT | 1.56
45 | GCCCTT | 1.1
46 | TCCTTG | 1.23
47 | AAAAGA | 0.999
48 | TCCCAC | 1.17
49 | ATCGAT | 1.2
50 | ACCCGC | 1.16
51 | ATGCAA | 1.11
52 | TAAACA | 1.29
53 | CCCTAC | 1.45
54 | GCCCCT | 1.22
